Test results as given in paper PMC4624933.
Results are given in words; binding and its absence hold for the method and conditions named. For part of these data: In cells and extracts the contact can be indirect. Some results given as binding are weak or reduced against the parent protein; the word gives no strength. Values belong to the molecule of their own block, whether it stands above or below them.

Amino acid sequences for entries named in this document (tags omitted). Residues count along the entry.
UniProt P05106, residues 742-788: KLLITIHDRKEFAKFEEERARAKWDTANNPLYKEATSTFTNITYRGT
UniProt P05556, residues 752-798: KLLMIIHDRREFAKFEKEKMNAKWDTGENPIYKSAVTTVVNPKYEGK

Tests used:
[1] = target: GST-β3 integrin cytoplasmic tail (UniProt P05106); experiment: pull-down; GST-β1 or GST-β3 cytoplasmic tails on glutathione-Sepharose beads, incubated 4 h at 4°C with pre-osteoblast lysates (cell lysis buffer: 10 mM PIPES pH 6.8, 100 mM NaCl, 0.1% deoxycholate, 0.5% Triton X100); beads and lysates pre-incubated 1 h with BJINT derivatives (printed 50 mM) or vehicle; Western blot with anti kindlin or anti talin head antibodies; only the target purified
[2] = target: GST-β1 integrin cytoplasmic tail (UniProt P05556); experiment: as above
[3] = target: GST kindlin-2-FERM domain (UniProt Q96AC1); experiment: ELISA; solid phase binding assay, room temperature; Maxisorp plates coated with 10 μg/mL GST-talin-F2/F3 or GST kindlin-2-FERM domain; biotinylated GST-β integrin tails in cell lysis buffer (non-ionic detergent) at increasing concentrations, 1 h; streptavidin-HRP/ABTS, A405; signal on plain GST subtracted; both purified

Molecule: biotinylated GST-β1 integrin cytoplasmic tail (from UniProt P05556 752-798) (domain or fragment)
- binding [3]: binds

B1: endogenous kindlin-2 (protein, UniProt Q8CIB5 1-680)
chain: MALDGIRMPDGCYADGTWELSVHVTDLNRDVTLRVTGEVHIGGVMLKLVEKLDVKKDWSDHALWWEKKRTWLLKTHWTLDKCGIQADAKLQFTPQHKLLRLQLPNMKYVKVKVNFSDRVFKAVSDICKTFNIRHPEELSLLKKPRDPTKKKKKKLDDQSEDEALELEGPLIMPGSGSIYSSPGLYSKTMTPTYDAHDGSPLSPTSAWFGDSALSEGNPGILAVSQPVTSPEILAKMFKPQALLDKAKTNQGWLDSSRSLMEQDVKENEALLLRFKYYSFFDLNPKYDAIRINQLYEQAKWALLLEEIECTEEEMMMFAALQYHINKLSIMTSENHLNNSDKEVDEVDAALSDLEITLEGGKTSTILGDITSIPELADYIKVFKPKKLTLKGYKQYWCTFKDTSISCYKSREESSGTPAHQLNLRGCEVTPDVNISGQKFNIKLLIPVAEGMNEIWLRCDNEKQYAHWMAACRLASKGKTMADSSYNLEVQNILSFLKMQHLNPDPQLIPDQITTDVNPECLVSPRYLKKYKSKQITARILEAHQNVAQMSLIEAKMRFIQAWQSLPEFGITHFIARFQGGKREELIGIAYNRLIRMDASTGDAIKTWRFSNMKQWNVNWEIKMVTVEFADEVRLSFICTEVDCKVVHEFIGGYIFLSTRAKDQNESLDEEMFYKLTSGWV
- binding [1]: binds
- binding [2]: binds

The remaining lines, values ahead:

- binding [1]: binds
- binding [2]: binds
Molecule: GFP-kindlin-2 (from UniProt Q96AC1 1-680)

- binding [3]: binds
Molecule: biotinylated GST-β3 integrin cytoplasmic tail (from UniProt P05106 742-788) (domain or fragment)
